The list shows a part of the results. Single values are uncertain, as repeats are few or missing.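 Imaging used 1,536-well plates; nuclei positive for cleaved PARP by antibody were divided by total DNA-stained nuclei to yield the apoptosis fraction. Doses for screening kept most cells viable, and cell lines differ markedly in resting and induced cleaved-PARP levels.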
What was measured:
Assay in all cases: cleaved PARP positive nuclei fraction relative to DMSO control; melanoma cells; higher = more apoptosis
Conditions in all cases: library dose: low library concentration; 72 h
[1] = tested on: 501Mel
[2] = tested on: A101D
[3] = tested on: A2058
[4] = tested on: A375
[5] = tested on: C32
[6] = tested on: CBRC008 (line from a melanoma biopsy)
[7] = tested on: CBRC013 (line from a melanoma biopsy)
[8] = tested on: CBRC014 (line from a melanoma biopsy)
[9] = tested on: CBRC016 (line from a melanoma biopsy)
[10] = tested on: CBRC017 (line from a melanoma biopsy)
[11] = tested on: COLO792
[12] = tested on: COLO800
[13] = tested on: COLO829
[14] = tested on: G361
[15] = tested on: IPC-298
[16] = tested on: IST-MEL1
[17] = tested on: LB2518-MEL
[18] = tested on: LOXIMVI
[19] = tested on: MEL-HO

Structure (SMILES)	cleaved PARP positive nuclei fraction [1] [%]	cleaved PARP positive nuclei fraction [2] [%]	cleaved PARP positive nuclei fraction [3] [%]	cleaved PARP positive nuclei fraction [4] [%]	cleaved PARP positive nuclei fraction [5] [%]	cleaved PARP positive nuclei fraction [6] [%]	cleaved PARP positive nuclei fraction [7] [%]	cleaved PARP positive nuclei fraction [8] [%]	cleaved PARP positive nuclei fraction [9] [%]	cleaved PARP positive nuclei fraction [10] [%]	cleaved PARP positive nuclei fraction [11] [%]	cleaved PARP positive nuclei fraction [12] [%]	cleaved PARP positive nuclei fraction [13] [%]	cleaved PARP positive nuclei fraction [14] [%]	cleaved PARP positive nuclei fraction [15] [%]	cleaved PARP positive nuclei fraction [16] [%]	cleaved PARP positive nuclei fraction [17] [%]	cleaved PARP positive nuclei fraction [18] [%]	cleaved PARP positive nuclei fraction [19] [%]
CC(=O)c1c(C)c2cnc(Nc3ccc(N4CCNCC4)cn3)nc2n(C2CCCC2)c1=O [palbociclib] + CO[C@@H]1[C@H](N(C)C(=O)c2ccccc2)C[C@H]2O[C@]1(C)n1c3ccccc3c3c4c(c5c6ccccc6n2c5c31)C(=O)NC4 [Midostaurin] (first compound 0.04 µM, partner dose 0.08 µM)	191	104	75.5	598	171	45.2	131	120	92.2	91.4	110	79.8	144	37.1	143	226	60.8	163	122
O=C(CCCCCCC(=O)Nc1ccccc1)NO [vorinostat] + O=C(O)c1ccc(-c2c[nH]c3ncc(-c4ccccc4)cc23)cc1C1CCCC1 [GSK650394] (first compound 0.08 µM, partner dose 0.16 µM)	93.4	84.9	150	234	43.4	247	87.4	88.4	159	142	115	104	124	94.3	291	35.8	105	47.6	65
OCCn1cc(-c2cnc3nnn(Cc4ccc5ncccc5c4)c3n2)cn1 + O=C(O)c1ccc(-c2c[nH]c3ncc(-c4ccccc4)cc23)cc1C1CCCC1 [GSK650394] (first compound 1 µM, partner dose 0.16 µM)	94.2	107	115	157	52.9	470	91.1	64.6	182	117	114	138	66.6	88.2	398	138	220	92.1	35.6
NC(=O)Nc1cc(-c2cccc(F)c2)sc1C(=O)N[C@H]1CCCNC1 + CN(NC(=O)CC(=O)NN(C)C(=S)c1ccccc1)C(=S)c1ccccc1 [STA4783] (first compound 0.02 µM, partner dose 0.006 µM)	179	97	111	8270	229	2760	121	711	189	157	178	90.3	162	82.9	186	207	265	107	134
NC(=O)Nc1cc(-c2cccc(F)c2)sc1C(=O)N[C@H]1CCCNC1 + NCC(=O)Nc1ccc(-n2nc(C(F)(F)F)cc2-c2ccc3c(ccc4ccccc43)c2)cc1 [OSU03012] (first compound 0.02 µM, partner dose 1 µM)	1120	188	93.4	8970	51	159	102	104	61.2	86.2	159	54.1	34.7	122	177	213	70.8	50.6	221
Nc1cccc2c1CN(C1CCC(=O)NC1=O)C2=O (configuration not stated) [lenalidomide] + CC(C)(C)c1cnc(CSc2cnc(NC(=O)C3CCNCC3)s2)o1 [SNS-032] (first compound 1 µM, partner dose 0.01 µM)	75.9	79.9	124	89.8	118	211	147	167	182	85.2	128	73.8	96.9	63.6	43.4	102	89.3	24.2	95.9
Cn1nnc2c(C(N)=O)ncn2c1=O [temozolomide] + O=C(Nc1cccc(Cl)c1)Nc1ncc(CCNc2ncnc3ccsc23)s1 [SNS314] (first compound 2 µM, partner dose 0.0008 µM)	66.6	172	127	23.4	79.1	52.5	65	110	97.8	80.9	123	202	97.4	123	197	201	96.2	25.7	88.2
C[C@]1(c2nc3c(C(N)=O)cccc3[nH]2)CCCN1 [Veliparib] + O=C(CCCCCCC(=O)Nc1ccccc1)NO [vorinostat] (first compound 1.4 µM, partner dose 0.08 µM)	260	90.7	94.1	135	175	83.4	78.9	75.3	142	106	74.5	45.9	42.8	109	90	135	52	82.2	156
Cc1ccc(NC(=O)c2cccc(N(C)C)c2)cc1NC(=O)c1ccc(O)cc1 + CN(NC(=O)CC(=O)NN(C)C(=S)c1ccccc1)C(=S)c1ccccc1 [STA4783] (first compound 2 µM, partner dose 0.006 µM)	218	362	314	5120	102	1610	141	1330	222	348	129	61.9	187	122	125	252	270	133	78.7
COCC[n+]1c2c(n(Cc3cnccn3)c1C)C(=O)c1ccccc1C2=O + NCC(=O)Nc1ccc(-n2nc(C(F)(F)F)cc2-c2ccc3c(ccc4ccccc43)c2)cc1 [OSU03012] (first compound 0.0004 µM, partner dose 1 µM)	532	42.8	166	3950	93.2	1130	108	91.2	226	103	64.4	112	98	97.3	111	119	89	81.4	139
C[C@@H]1CCN(C(=O)CC#N)C[C@@H]1N(C)c1ncnc2[nH]ccc12 + O=C(Nc1cccc(Cl)c1)Nc1ncc(CCNc2ncnc3ccsc23)s1 [SNS314] (first compound 1 µM, partner dose 0.0008 µM)	64.6	18.7	91.8	46.6	136	133	127	84.9	92.9	92.3	95.3	112	61.3	36.3	81.6	60.9	45.7	60.3	57.8
Cn1nnc2c(C(N)=O)ncn2c1=O [temozolomide] + OCCn1cc(-c2cnc3nnn(Cc4ccc5ncccc5c4)c3n2)cn1 [PF04217903] (first compound 2 µM, partner dose 1 µM)	64.1	83.2	261	135	49.2	117	123	82.9	184	101	105	91	68.7	38.8	103	54.4	44.1	56.6	226
O=C(Nc1cccc(Cl)c1)Nc1ncc(CCNc2ncnc3ccsc23)s1 + CN(C)S(=O)(=O)c1ccc2c(c1)/C(=C/c1cc3c([nH]1)CCCC3)C(=O)N2 [SU6656] (first compound 0.0008 µM, partner dose 0.4 µM)	93.6	83.1	32.5	123	51.4	63.3	117	102	104	93	139	18	67.6	167	143	141	86.2	102	37.5
OCCn1cc(-c2cnc3nnn(Cc4ccc5ncccc5c4)c3n2)cn1 + NCC(=O)Nc1ccc(-n2nc(C(F)(F)F)cc2-c2ccc3c(ccc4ccccc43)c2)cc1 [OSU03012] (first compound 1 µM, partner dose 1 µM)	283	66.5	243	4150	110	41.1	178	77.9	95.4	84.1	25.9	138	104	146	69.2	109	96.3	20.6	73
Cn1nnc2c(C(N)=O)ncn2c1=O [temozolomide] + CC1(C)NC(=O)N(c2ccc([N+](=O)[O-])c(C(F)(F)F)c2)C1=O [nilutamide] (first compound 2 µM, partner dose 1 µM)	102	92.2	169	54.2	170	123	124	99.6	91.3	128	104	63.6	87.1	156	131	131	91.5	97.5	139
O=C(Nc1cccc(Cl)c1)Nc1ncc(CCNc2ncnc3ccsc23)s1 + Cn1cncc1[C@@](N)(c1ccc(Cl)cc1)c1ccc2c(c1)c(-c1cccc(Cl)c1)cc(=O)n2C [tipifarnib] (first compound 0.0008 µM, partner dose 0.01 µM)	79.2	89.4	142	201	87.8	292	127	91.1	87.7	102	127	120	97.2	189	91.8	111	83.2	74.3	67.2
C[C@@H]1CCN(C(=O)CC#N)C[C@@H]1N(C)c1ncnc2[nH]ccc12 + O=C(O)c1ccc(-c2c[nH]c3ncc(-c4ccccc4)cc23)cc1C1CCCC1 [GSK650394] (first compound 1 µM, partner dose 0.16 µM)	85.7	83.7	112	150	221	235	81.6	89.9	158	150	214	394	147	84	134	154	88	50.6	150
Cc1ccc(NC(=O)c2cccc(N(C)C)c2)cc1NC(=O)c1ccc(O)cc1 + COc1cc2c(Oc3ccc4[nH]c(C)cc4c3F)ncnc2cc1OCCCN1CCCC1 [cediranib] (first compound 2 µM, partner dose 0.4 µM)	194	300	37.3	96.3	114	141	122	97.8	240	111	68.1	153	94	133	81.1	94.8	191	41.5	75.2

Two entries from above, set out differently.
Structure (SMILES),cleaved PARP positive nuclei fraction [1] [%],cleaved PARP positive nuclei fraction [2] [%],cleaved PARP positive nuclei fraction [3] [%],cleaved PARP positive nuclei fraction [4] [%],cleaved PARP positive nuclei fraction [5] [%],cleaved PARP positive nuclei fraction [6] [%],cleaved PARP positive nuclei fraction [7] [%],cleaved PARP positive nuclei fraction [8] [%],cleaved PARP positive nuclei fraction [9] [%],cleaved PARP positive nuclei fraction [10] [%],cleaved PARP positive nuclei fraction [11] [%],cleaved PARP positive nuclei fraction [12] [%],cleaved PARP positive nuclei fraction [13] [%],cleaved PARP positive nuclei fraction [14] [%],cleaved PARP positive nuclei fraction [15] [%],cleaved PARP positive nuclei fraction [16] [%],cleaved PARP positive nuclei fraction [17] [%],cleaved PARP positive nuclei fraction [18] [%],cleaved PARP positive nuclei fraction [19] [%]
"Nc1cccc2c1CN(C1CCC(=O)NC1=O)C2=O (configuration not stated) [lenalidomide] + CC(C)(C)c1cnc(CSc2cnc(NC(=O)C3CCNCC3)s2)o1 [SNS-032] (first compound 1 µM, partner dose 0.01 µM)",75.9,79.9,124,89.8,118,211,147,167,182,85.2,128,73.8,96.9,63.6,43.4,102,89.3,24.2,95.9
"Cn1nnc2c(C(N)=O)ncn2c1=O [temozolomide] + O=C(Nc1cccc(Cl)c1)Nc1ncc(CCNc2ncnc3ccsc23)s1 [SNS314] (first compound 2 µM, partner dose 0.0008 µM)",66.6,172,127,23.4,79.1,52.5,65,110,97.8,80.9,123,202,97.4,123,197,201,96.2,25.7,88.2
